Experimental data: PubChem BioAssay AID1224830 (NIAID, 2016)
The whole screen tested about 18,000 reagents; below is a part drawn at random. About 2,900 of them (16%) count as active. 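Calls are made per well; low scores hint the gene aids the LPS response, high scores that it dampens it.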 A number with no mark means an inactive call. Repeated entries: four replicate wells of each siRNA pool.

Purpose: 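Genes whose knock-down alters the TNF-alpha reporter response to LPS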 (primary screen)
System: human THP-1 monocytic leukaemia cells, TNF dual-luciferase reporter clone, PMA-differentiated to macrophage-like cells
Reagents: siRNA pool against human genes, 50 nM
Timing: LPS for 4 h, given about 3 days after siRNA transfection
Conditions: bacterial LPS (TLR4 ligand), 10 ng/ml
Detection: 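Ratio of firefly to renilla light, scaled to the plate median and expressed as a robust z-score per replicate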
Scale: TNF reporter robust z-score: higher = stronger TNF reporter response to LPS
Rule for the call: 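Each well counts as active if its z-score is over 2.8 or under -1.5; controls are left without a call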

target	TNF reporter robust z-score
PDE5A	-0.27
PDE5A	-0.99
PDE5A	-1
PDE5A	-1.14
PSMA8	1.2
PSMA8	0.71
PSMA8	-0.91
PSMA8	0.33
DLX5	0.91
DLX5	0.23
DLX5	-0.41
DLX5	1.49
RABL6	-1.35
RABL6	-0.2
RABL6	-0.59
RABL6	0
RPUSD3	-0.83
RPUSD3	-0.51
RPUSD3	-0.01
RPUSD3	-1.06
VPS37A	0.41
VPS37A	1.27
VPS37A	0.19
VPS37A	-0.45
ACCS	0.74
ACCS	1.15
ACCS	0
ACCS	0.61
CUTC	0.5
CUTC	0.31
CUTC	0.57
CUTC	0.56
TCF7L2	-0.34
TCF7L2	0.65
TCF7L2	-0.77
TCF7L2	-0.31
CNKSR1	0.89
CNKSR1	1.68
CNKSR1	1.45
CNKSR1	1.55
MCM7	-0.31
MCM7	0.81
MCM7	-0.36
MCM7	-0.76
ZNF776	1.1
ZNF776	1.31
ZNF776	1.23

Targets listed so far whose target name begins with P or p:
target	TNF reporter robust z-score
PDE5A	-0.27
PDE5A	-0.99
PDE5A	-1
PDE5A	-1.14
PSMA8	1.2
PSMA8	0.71
PSMA8	-0.91
PSMA8	0.33

The list goes on.
target	TNF reporter robust z-score
UBE2A	-1.17
UBE2A	-0.31
UBE2A	-0.71
UBE2A	0.1
RECQL	0.88
RECQL	-0.67
RECQL	0.53
RECQL	1.04
SACK1B	2.01
SACK1B	2.28
SACK1B	3.34 (active)
SACK1B	2.99 (active)
ACP4	-1.08
ACP4	0.05
ACP4	-0.49
NUDCD1	-0.39
NUDCD1	1.35
NUDCD1	-0.02
NUDCD1	-0.27
MAP3K3	-0.68
MAP3K3	-1.55 (active)
MAP3K3	-1.07
MAP3K3	-1.19
HLA-DOB	-0.37
HLA-DOB	0.36
HLA-DOB	0.45
HLA-DOB	-0.51
HOXC5	-0.35
HOXC5	1.81
HOXC5	-0.3
HOXC5	0.43
ZNG1C	1.27
ZNG1C	0.74
ZNG1C	1.46
ZNG1C	2.8 (active)
RBM39	-1.76 (active)
RBM39	-1.12
RBM39	-1.45
RBM39	-1.83 (active)
SRSF10	1.65
SRSF10	2.38
SRSF10	2.02
SRSF10	1.41
SMAD1	-1.54 (active)
SMAD1	-0.93
SMAD1	-1.56 (active)
SMAD1	-1.17
PSG4	1.88
PSG4	0.84
PSG4	-0.33
PSG4	-0.13
EGLN1	1.69
EGLN1	0.69
EGLN1	1.04
EGLN1	1.33
CDK3	-0.64
CDK3	2.91 (active)
CDK3	1.9
CDK3	0.08
ZFAND2B	1.18
ZFAND2B	5.14 (active)
ZFAND2B	2.33
ZFAND2B	0.91
NUSAP1	-1.26
NUSAP1	-0.63
NUSAP1	-0.52
NUSAP1	-0.58
ISLR2	-0.75
ISLR2	-0.87
ISLR2	0.22
ISLR2	0.24
SLC30A1	0.03
SLC30A1	-0.99
SLC30A1	1.03
SLC30A1	1.07
CYP26A1	2.48
CYP26A1	2.85 (active)
CYP26A1	2.46
CYP26A1	1.92
TBC1D22B	1.79
TBC1D22B	3.59 (active)
TBC1D22B	2.36
TBC1D22B	0.88
KCNE4	-0.96
KCNE4	0.42
KCNE4	0.52
KCNE4	1.18
GOLGA7	0.71
GOLGA7	1.06
GOLGA7	0.91
GOLGA7	1.38
PRSS8	0.61
PRSS8	0.86
PRSS8	-0.88
PRSS8	-0.16
